Source: publication PMC3516490
Results are given in words; binding and its absence hold for the method and conditions named. Binding seen in cells or lysates may run through a third protein. Tags and fused reporters may be left off the sequences shown.

Biological target: T1, Mps3-3xFLAG (S. cerevisiae) (UniProt P47069)
T1 sequence (chain, glycosylated (detected by Pro-Q Emerald stain)): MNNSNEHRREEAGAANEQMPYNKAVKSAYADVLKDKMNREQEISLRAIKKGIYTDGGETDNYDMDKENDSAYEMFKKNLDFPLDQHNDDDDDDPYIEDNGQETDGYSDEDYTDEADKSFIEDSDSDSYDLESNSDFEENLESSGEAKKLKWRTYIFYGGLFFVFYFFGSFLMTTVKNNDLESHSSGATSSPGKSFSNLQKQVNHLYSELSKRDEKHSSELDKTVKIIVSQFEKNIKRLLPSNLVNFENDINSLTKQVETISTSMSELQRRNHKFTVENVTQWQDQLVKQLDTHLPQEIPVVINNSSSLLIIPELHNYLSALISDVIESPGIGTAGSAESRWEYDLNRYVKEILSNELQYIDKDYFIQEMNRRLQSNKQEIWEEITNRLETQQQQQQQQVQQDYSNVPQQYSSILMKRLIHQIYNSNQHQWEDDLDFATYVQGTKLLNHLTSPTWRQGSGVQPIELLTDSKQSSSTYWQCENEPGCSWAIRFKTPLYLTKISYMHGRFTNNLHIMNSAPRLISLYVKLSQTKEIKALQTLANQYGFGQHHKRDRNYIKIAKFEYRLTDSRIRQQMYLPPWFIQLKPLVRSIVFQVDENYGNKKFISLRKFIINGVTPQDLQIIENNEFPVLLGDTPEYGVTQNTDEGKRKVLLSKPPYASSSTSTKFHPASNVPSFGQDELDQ
Experiment: co-IP; Mps3-3xFLAG immunoprecipitated from yeast lysate and tested for 3xHA-Emp65 (Figure S3B)

B1: 3xHA-Emp65 (protein, UniProt P40085 1-556)
chain: MQHKDTAVAKDTAKKRLLRRNSAPSAIHIISRLDKKWSFLWNTIDRHNIVEEQDESSAAKSEEEHEDDYELEQLLNMIRIPMFLEKFMLFALLTSLDCFLYYFTVLPIRLIKGYVKQFKSYRQHYRLQQRSGHKNKIPFRYRITSREYKERCMIFIIVISSILLSKLDTSKLYHRIKRQSTMKLYMLFSVLEMADKMLASLGQSLLTVMLSRKNSERILLHKCLLVSMSLTYVTIHGYVLVYQAISLNIAVNSYSNALLTLLLSMQFAEIKSSVLKKFDKEGFFQITIADVVERFKLTLLLSITGLRNLQSWSSSLSNTSINFWSPRSTLSIVINILCGPMVSVVGSEVLVDWAKHAYITKFNRIRPQIYDKFYYIIYKDYSTRTHKLEDRLGLPLPAFVVLFIVMVRPTLFKSSEPSYLPSLFRILFMGASVFLLALLAKFTLDLILIKWSKRIEQRFRDQAFNTVVTEEEYVPGLLSGGMGKVDVSTRIALHSDYNKENRIETESVSPMRKRKTTLTAECTPPSLNDIRRQKDSKNPRSLENVARYKMVSKRIW
Q: Which binding does the source give for B1 here?
A: no binding
